Assay results: the supplement of paper PMC6411743
± gives the standard deviation of the averaged measurements. The list shows a part of the results, in another mix than the full data.

Protein sequences, listed by entry. Tags and fused reporters are not part of them. Lines headed by an entry give the natural chain unless they say otherwise; changes in a name come on top.
UniProt Q5JVS0: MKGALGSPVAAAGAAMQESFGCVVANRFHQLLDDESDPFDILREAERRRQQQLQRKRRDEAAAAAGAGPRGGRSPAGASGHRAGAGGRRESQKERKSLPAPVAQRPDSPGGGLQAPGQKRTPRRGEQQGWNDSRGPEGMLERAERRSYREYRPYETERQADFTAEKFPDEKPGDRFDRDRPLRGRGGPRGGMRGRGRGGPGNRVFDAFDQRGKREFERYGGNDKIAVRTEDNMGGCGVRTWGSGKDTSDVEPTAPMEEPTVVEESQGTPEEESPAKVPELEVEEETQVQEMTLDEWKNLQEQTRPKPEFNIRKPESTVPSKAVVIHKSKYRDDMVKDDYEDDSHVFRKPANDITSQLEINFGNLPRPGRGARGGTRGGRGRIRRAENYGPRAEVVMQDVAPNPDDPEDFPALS
UniProt Q5W0U4: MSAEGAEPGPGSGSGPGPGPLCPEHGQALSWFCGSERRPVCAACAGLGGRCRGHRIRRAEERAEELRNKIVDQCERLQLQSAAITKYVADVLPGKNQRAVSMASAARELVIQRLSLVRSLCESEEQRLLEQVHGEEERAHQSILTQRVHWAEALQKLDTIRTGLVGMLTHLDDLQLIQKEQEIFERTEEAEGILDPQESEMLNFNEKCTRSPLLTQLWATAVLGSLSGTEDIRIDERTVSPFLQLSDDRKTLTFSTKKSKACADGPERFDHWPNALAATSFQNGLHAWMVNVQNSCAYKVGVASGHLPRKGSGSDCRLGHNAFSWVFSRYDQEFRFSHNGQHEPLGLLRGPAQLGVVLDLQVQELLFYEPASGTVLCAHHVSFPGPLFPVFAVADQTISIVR
UniProt Q6GMV3: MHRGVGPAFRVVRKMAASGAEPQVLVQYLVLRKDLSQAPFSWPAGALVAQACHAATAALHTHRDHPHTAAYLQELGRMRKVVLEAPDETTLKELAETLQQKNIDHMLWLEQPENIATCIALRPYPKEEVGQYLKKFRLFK
UniProt Q5TFE4: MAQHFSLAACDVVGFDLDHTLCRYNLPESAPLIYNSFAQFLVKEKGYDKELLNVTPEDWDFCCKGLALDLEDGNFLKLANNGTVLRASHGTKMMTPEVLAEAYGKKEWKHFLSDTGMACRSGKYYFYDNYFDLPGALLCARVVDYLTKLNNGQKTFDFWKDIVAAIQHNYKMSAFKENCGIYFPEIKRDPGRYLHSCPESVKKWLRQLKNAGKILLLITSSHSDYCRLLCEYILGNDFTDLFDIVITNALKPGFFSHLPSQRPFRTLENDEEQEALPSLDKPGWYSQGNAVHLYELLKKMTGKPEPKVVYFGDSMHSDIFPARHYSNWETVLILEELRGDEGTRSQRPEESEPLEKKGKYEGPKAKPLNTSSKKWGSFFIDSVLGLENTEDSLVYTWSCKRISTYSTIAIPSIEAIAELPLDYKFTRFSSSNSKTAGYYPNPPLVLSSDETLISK
UniProt Q5T447: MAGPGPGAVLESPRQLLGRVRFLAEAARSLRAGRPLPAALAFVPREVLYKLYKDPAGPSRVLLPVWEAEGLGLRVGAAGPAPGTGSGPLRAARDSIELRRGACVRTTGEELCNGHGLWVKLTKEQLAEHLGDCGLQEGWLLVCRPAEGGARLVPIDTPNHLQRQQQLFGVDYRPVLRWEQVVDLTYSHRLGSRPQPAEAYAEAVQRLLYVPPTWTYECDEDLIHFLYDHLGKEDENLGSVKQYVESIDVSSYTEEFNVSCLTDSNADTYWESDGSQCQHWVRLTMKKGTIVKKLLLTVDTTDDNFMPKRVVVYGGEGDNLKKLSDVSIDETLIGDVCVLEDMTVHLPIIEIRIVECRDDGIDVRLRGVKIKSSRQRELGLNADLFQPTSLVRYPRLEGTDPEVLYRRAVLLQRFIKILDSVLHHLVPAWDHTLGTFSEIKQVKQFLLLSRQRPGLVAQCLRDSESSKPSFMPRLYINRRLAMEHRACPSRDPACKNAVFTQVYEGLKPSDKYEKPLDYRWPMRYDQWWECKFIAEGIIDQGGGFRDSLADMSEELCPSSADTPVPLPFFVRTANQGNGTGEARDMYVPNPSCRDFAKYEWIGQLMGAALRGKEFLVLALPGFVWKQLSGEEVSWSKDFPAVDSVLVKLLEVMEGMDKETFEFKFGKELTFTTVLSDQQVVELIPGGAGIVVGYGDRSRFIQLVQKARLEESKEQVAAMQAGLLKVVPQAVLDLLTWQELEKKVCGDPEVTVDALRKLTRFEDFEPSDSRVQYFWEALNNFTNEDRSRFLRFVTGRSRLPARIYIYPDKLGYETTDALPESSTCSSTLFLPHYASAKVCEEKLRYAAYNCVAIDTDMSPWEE
UniProt Q5JRA6: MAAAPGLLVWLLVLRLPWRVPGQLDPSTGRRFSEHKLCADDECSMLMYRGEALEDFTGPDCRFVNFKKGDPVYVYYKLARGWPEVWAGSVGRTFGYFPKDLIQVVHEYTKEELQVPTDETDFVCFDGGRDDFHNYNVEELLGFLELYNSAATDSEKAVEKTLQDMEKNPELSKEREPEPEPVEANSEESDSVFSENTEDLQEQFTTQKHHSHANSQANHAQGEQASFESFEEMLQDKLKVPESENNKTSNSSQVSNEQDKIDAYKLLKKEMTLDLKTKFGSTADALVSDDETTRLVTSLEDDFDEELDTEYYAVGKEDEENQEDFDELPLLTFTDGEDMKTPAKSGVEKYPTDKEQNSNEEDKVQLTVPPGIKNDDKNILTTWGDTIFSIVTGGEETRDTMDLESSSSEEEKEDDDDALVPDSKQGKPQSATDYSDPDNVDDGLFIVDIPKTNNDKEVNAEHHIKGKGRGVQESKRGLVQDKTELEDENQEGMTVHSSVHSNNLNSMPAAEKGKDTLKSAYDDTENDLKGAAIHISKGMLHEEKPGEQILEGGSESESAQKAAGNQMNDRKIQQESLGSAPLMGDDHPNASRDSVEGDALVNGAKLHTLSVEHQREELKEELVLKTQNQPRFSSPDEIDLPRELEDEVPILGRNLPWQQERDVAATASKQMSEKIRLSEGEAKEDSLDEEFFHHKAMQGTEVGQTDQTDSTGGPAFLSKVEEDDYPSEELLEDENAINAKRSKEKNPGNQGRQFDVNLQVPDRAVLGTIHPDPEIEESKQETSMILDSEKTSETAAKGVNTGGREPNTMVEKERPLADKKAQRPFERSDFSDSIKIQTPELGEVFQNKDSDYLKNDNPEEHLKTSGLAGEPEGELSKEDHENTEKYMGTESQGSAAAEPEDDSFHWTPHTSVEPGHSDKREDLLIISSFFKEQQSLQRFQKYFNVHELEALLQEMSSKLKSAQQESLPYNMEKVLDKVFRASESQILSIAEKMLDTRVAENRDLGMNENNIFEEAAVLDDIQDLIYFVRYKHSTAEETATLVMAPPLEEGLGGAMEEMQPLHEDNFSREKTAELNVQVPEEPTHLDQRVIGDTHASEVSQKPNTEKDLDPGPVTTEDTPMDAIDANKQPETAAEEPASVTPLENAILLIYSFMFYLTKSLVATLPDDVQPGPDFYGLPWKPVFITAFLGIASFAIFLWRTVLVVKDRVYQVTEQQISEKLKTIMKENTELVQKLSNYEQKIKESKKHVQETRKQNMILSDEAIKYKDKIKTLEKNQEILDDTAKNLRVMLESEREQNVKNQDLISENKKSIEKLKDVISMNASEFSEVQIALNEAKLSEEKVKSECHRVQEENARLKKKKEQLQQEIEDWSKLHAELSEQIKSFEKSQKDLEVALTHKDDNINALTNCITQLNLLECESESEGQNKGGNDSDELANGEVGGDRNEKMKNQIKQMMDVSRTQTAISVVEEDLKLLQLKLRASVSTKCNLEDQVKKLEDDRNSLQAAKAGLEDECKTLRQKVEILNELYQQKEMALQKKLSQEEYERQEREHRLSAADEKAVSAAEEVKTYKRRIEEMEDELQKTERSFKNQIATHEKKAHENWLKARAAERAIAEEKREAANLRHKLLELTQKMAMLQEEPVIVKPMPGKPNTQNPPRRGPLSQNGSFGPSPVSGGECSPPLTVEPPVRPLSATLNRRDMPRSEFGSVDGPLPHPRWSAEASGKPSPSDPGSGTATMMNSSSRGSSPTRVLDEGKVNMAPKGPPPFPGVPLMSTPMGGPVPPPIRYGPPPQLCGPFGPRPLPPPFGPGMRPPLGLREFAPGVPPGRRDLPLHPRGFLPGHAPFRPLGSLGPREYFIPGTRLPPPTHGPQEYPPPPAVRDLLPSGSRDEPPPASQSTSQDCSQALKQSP
UniProt Q9HBG7: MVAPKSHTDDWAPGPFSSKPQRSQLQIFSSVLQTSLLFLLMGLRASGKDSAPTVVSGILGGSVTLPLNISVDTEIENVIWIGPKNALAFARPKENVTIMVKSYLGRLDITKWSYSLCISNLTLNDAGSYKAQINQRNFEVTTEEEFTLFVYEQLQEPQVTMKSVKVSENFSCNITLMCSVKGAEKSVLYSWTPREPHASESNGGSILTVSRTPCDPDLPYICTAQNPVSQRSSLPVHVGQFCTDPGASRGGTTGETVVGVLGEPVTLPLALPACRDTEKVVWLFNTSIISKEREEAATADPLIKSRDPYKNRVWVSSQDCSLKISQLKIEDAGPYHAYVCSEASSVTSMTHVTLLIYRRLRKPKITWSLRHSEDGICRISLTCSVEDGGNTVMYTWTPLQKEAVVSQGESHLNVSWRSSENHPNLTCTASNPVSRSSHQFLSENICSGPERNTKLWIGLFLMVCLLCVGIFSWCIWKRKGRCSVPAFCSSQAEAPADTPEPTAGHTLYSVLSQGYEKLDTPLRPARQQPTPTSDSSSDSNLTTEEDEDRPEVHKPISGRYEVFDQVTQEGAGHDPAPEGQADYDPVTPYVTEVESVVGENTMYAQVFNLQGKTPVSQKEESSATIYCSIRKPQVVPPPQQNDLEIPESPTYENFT
UniProt Q5BJH7: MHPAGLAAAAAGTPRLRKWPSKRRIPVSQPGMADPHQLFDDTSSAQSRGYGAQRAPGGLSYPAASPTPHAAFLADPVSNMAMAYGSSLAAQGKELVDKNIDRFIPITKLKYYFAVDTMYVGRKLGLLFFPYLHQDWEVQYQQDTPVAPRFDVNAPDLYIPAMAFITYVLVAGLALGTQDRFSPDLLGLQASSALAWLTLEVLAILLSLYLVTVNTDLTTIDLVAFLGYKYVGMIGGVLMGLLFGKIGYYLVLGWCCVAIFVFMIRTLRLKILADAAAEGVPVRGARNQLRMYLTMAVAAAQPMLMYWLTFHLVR
UniProt Q69YH5: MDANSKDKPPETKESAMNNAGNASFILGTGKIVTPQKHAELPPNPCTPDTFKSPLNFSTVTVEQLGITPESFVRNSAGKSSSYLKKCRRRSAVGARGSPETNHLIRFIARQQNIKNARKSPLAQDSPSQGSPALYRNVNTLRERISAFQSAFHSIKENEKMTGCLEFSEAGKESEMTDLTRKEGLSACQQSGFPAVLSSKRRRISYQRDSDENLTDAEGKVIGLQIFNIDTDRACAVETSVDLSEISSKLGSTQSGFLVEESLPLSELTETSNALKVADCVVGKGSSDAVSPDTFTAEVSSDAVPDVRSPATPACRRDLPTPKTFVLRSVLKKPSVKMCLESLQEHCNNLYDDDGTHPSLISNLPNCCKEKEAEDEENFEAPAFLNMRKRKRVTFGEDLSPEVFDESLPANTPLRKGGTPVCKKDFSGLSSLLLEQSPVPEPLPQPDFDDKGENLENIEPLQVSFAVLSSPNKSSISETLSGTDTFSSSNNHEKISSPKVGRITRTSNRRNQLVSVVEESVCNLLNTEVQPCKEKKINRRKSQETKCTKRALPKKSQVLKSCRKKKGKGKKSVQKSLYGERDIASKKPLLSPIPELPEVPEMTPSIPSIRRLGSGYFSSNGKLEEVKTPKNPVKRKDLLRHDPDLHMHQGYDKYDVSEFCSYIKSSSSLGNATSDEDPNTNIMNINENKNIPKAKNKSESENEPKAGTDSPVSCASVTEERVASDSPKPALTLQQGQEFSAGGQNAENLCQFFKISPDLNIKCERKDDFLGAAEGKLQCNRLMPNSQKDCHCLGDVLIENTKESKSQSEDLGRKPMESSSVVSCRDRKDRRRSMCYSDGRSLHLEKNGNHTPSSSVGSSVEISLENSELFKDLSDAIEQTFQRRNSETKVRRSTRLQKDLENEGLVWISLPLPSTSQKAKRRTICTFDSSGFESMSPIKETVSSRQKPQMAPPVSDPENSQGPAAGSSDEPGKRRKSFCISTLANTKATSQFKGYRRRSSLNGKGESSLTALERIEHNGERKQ
UniProt Q6P1X6: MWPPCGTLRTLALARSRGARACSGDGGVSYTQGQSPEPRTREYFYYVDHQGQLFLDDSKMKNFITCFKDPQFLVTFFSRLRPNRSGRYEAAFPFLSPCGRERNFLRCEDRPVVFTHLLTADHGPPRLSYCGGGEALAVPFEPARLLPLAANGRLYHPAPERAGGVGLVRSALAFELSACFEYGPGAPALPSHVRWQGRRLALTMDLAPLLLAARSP
UniProt Q56VL3: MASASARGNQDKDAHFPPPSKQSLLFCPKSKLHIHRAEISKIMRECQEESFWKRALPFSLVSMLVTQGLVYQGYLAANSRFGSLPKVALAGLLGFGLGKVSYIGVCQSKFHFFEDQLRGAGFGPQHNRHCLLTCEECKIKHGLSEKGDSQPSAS

Compound: Nc1ncnc2c1ncn2[C@@H]1O[C@H](COP(=O)(O)OP(=O)(O)OP(=O)(O)O)[C@@H](O)[C@H]1O [adenosine triphosphate]
Experiment: NP40-soluble protein abundance relative to vehicle (solubility fold change) (ratio); higher = more soluble protein in presence of ATP
In short: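 In three independent experiments, Jurkat crude lysate made by Dounce homogenisation was treated for 10 min at room temperature and then 3 min at 37 °C with eight concentrations ranging from 0.1 to 10 mM. It was then solubilised with 0.8% NP40 plus benzonase for 60 min at 4 °C and ultracentrifuged. The supernatant was TMT-labelled for LC-MS/MS, and each value is the fold change against the detergent-processed vehicle for the same replicate, using vsn-normalised intensities.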

Target	NP40-soluble protein abundance (concentration: 1mM)	NP40-soluble protein abundance (concentration: 2mM)	NP40-soluble protein abundance (concentration: 4mM)	NP40-soluble protein abundance (concentration: 6mM)	NP40-soluble protein abundance (concentration: 8mM)	NP40-soluble protein abundance (concentration: 10mM)
HABP4 (UniProt Q5JVS0)	1.26 ± 0.073	1.361 ± 0.0042	1.4 ± 0.1	1.53 ± 0.18	1.359 ± 0.0073	1.4 ± 0.19
REEP3 (UniProt Q6NUK4)	1.1 ± 0.067	1.14 ± 0.08	1.12 ± 0.051	1.11 ± 0.018	1.11 ± 0.058	1.15 ± 0.018
TYW3 (UniProt Q6IPR3)	0.96 ± 0.15	0.948 ± 0.16	0.973 ± 0.15	0.873 ± 0.16	0.921 ± 0.11	0.956 ± 0.12
UniProt Q53HC9 and related entries	0.978 ± 0.071	0.984 ± 0.064	0.962 ± 0.064	0.913 ± 0.05	0.975 ± 0.051	0.946 ± 0.054
ERAP2 (UniProt Q6P179)	0.911 ± 0.029	0.955 ± 0.033	0.932 ± 0.028	0.894 ± 0.046	0.88 ± 0.034	0.934 ± 0.029
C9orf64 (UniProt Q5T6V5)	0.914 ± 0.05	0.96 ± 0.051	0.983 ± 0.075	0.927 ± 0.11	1.01 ± 0.054	1.01 ± 0.067
UniProt Q5MNZ6	1.02 ± 0.15	1.02 ± 0.13	1.02 ± 0.12	0.945 ± 0.12	1 ± 0.1	1.02 ± 0.16
Q5TZT0 and related entries (UniProt Q9NSU2)	0.963 ± 0.02	0.965 ± 0.028	0.984 ± 0.02	0.958 ± 0.097	0.965 ± 0.019	0.909 ± 0.053
UniProt Q5VYS8 and related entries	1.07 ± 0.037	1.07 ± 0.019	1.07 ± 0.03	1.1 ± 0.063	1.09 ± 0.045	1.1 ± 0.064
UniProt Q5VWP2	0.948 ± 0.17	1.05 ± 0.093	1.06 ± 0.033	1.01 ± 0.13	1.04 ± 0.056	1 ± 0.055
MRPL14 (UniProt Q6P1L8)	1.03 ± 0.018	1.03 ± 0.069	0.95 ± 0.054	0.929 ± 0.063	0.973 ± 0.042	0.975 ± 0.064
EAPP (UniProt Q56P03)	1.02 ± 0.13	0.971 ± 0.11	1.04 ± 0.14	1.06 ± 0.13	1.06 ± 0.1	1.02 ± 0.1
UniProt Q5W0U4 and related entries	1.06 ± 0.063	1 ± 0.023	1.03 ± 0.04	1.07 ± 0.0023	1.11 ± 0.096	1.11 ± 0.021
UniProt Q6GMV3	0.92 ± 0.13	0.893 ± 0.095	0.933 ± 0.11	0.96 ± 0.14	0.885 ± 0.075	0.81 ± 0.097
NT5DC1 (UniProt Q5TFE4)	1.02 ± 0.11	1.02 ± 0.085	1.01 ± 0.077	0.937 ± 0.13	0.991 ± 0.057	0.978 ± 0.052
CRTC2 (UniProt Q53ET0)	1.04 ± 0.043	1.03 ± 0.071	1.02 ± 0.029	1.02 ± 0.036	0.971 ± 0.063	0.976 ± 0.032
GLT8D1 (UniProt Q68CQ7)	0.948 ± 0.012	0.987 ± 0.033	0.967 ± 0.042	0.966 ± 0.079	0.92 ± 0.029	0.973 ± 0.034
UniProt Q5H8A4-5|Q5H8A4-6	0.952 ± 0.022	0.988 ± 0.012	0.943 ± 0.066	0.9801 ± 0.00087	0.946 ± 0.056	0.954 ± 0.021
NADSYN1 (UniProt Q6IA69)	0.996 ± 0.13	1.02 ± 0.028	1.07 ± 0.019	0.959 ± 0.035	0.991 ± 0.071	0.955 ± 0.018
PGM2L1 (UniProt Q6PCE3)	0.965 ± 0.12	0.987 ± 0.093	0.946 ± 0.062	0.894 ± 0.13	0.953 ± 0.055	0.975 ± 0.046

Target	NP40-soluble protein abundance (concentration: 1mM)	NP40-soluble protein abundance (concentration: 2mM)	NP40-soluble protein abundance (concentration: 4mM)	NP40-soluble protein abundance (concentration: 6mM)	NP40-soluble protein abundance (concentration: 8mM)	NP40-soluble protein abundance (concentration: 10mM)
TOR2A (UniProt Q5JU69)	0.883 ± 0.052	1.02 ± 0.035	0.949 ± 0.033	0.876 ± 0.074	0.896 ± 0.061	0.998 ± 0.038
UniProt Q5T2D3	1.38 ± 0.15	1.35 ± 0.24	1.56 ± 0.24	1.5 ± 0.22	1.49 ± 0.33	1.59 ± 0.056
PPP2R2D (UniProt Q66LE6)	1.08 ± 0.11	1.01 ± 0.055	1.03 ± 0.068	0.988 ± 0.072	1.04 ± 0.098	1.02 ± 0.055
ZNF326 (UniProt Q5BKZ1)	1.18 ± 0.089	1.17 ± 0.08	1.21 ± 0.12	1.29 ± 0.17	1.3 ± 0.1	1.35 ± 0.13
HECTD3 (UniProt Q5T447)	1.04 ± 0.069	1.01 ± 0.052	1.02 ± 0.036	0.962 ± 0.019	1.02 ± 0.017	1.02 ± 0.06
UniProt Q6P9B6	0.952 ± 0.025	0.958 ± 0.13	0.962 ± 0.14	0.969 ± 0.1	0.958 ± 0.078	0.969 ± 0.066
UniProt Q5T8I3 and related entries	1.03 ± 0.063	1.07 ± 0.042	1.16 ± 0.14	1.09 ± 0.11	1.04 ± 0.047	1.06 ± 0.049
AARS2 (UniProt Q5JTZ9)	1.02 ± 0.046	1.03 ± 0.04	1.03 ± 0.051	0.981 ± 0.063	1.01 ± 0.049	1.02 ± 0.044
MIA3 (UniProt Q5JRA6)	0.946 ± 0.041	0.9483 ± 0.0089	0.957 ± 0.029	1 ± 0.036	0.9454 ± 0.0083	0.941 ± 0.031
ARID2 (UniProt Q68CP9)	1.19 ± 0.024	1.22 ± 0.047	1.25 ± 0.034	1.31 ± 0.13	1.33 ± 0.074	1.38 ± 0.074
Q5TH30 and related entries (UniProt Q9UGV2)	0.994 ± 0.071	0.995 ± 0.041	0.979 ± 0.02	0.987 ± 0.093	0.951 ± 0.048	0.978 ± 0.015
ALKBH2 (UniProt Q6NS38)	1.04 ± 0.061	1.11 ± 0.075	1.09 ± 0.098	1.13 ± 0.12	1.12 ± 0.18	1.19 ± 0.13
ERICH5 (UniProt Q6P6B1)	0.894 ± 0.04	0.909 ± 0.011	0.913 ± 0.026	0.911 ± 0.064	0.859 ± 0.053	0.859 ± 0.0092
Q5VYH9 and related entries (UniProt Q9HBG7)	0.919 ± 0.033	0.958 ± 0.036	0.994 ± 0.028	0.9353 ± 0.0092	0.901 ± 0.054	0.915 ± 0.084
PRPF8 (UniProt Q6P2Q9)	1.19 ± 0.11	1.19 ± 0.043	1.288 ± 0.011	1.241 ± 0.0059	1.58 ± 0.054	1.52 ± 0.12
UniProt Q5T3J3	1.01 ± 0.034	1.13 ± 0.098	1.22 ± 0.051	1.28 ± 0.095	1.3 ± 0.045	1.31 ± 0.06
UniProt Q5BJH7 and related entries	0.98 ± 0.091	0.99 ± 0.09	0.946 ± 0.028	0.9432 ± 0.0024	0.945 ± 0.089	0.916 ± 0.013
UniProt Q69YH5 and related entries	0.956 ± 0.054	0.96 ± 0.03	0.984 ± 0.032	0.958 ± 0.037	0.9408 ± 0.0053	0.959 ± 0.041
RINT1 (UniProt Q6NUQ1)	1.02 ± 0.091	0.983 ± 0.06	0.956 ± 0.086	0.971 ± 0.1	0.995 ± 0.045	0.98 ± 0.079
UniProt Q6NTF9 and related entries	0.884 ± 0.082	0.892 ± 0.042	0.91 ± 0.04	0.846 ± 0.046	0.915 ± 0.019	1.02 ± 0.08

3 records picked at random from the list so far:
Target	NP40-soluble protein abundance (concentration: 1mM)	NP40-soluble protein abundance (concentration: 2mM)	NP40-soluble protein abundance (concentration: 4mM)	NP40-soluble protein abundance (concentration: 6mM)	NP40-soluble protein abundance (concentration: 8mM)	NP40-soluble protein abundance (concentration: 10mM)
Q5VYH9 and related entries (UniProt Q9HBG7)	0.919 ± 0.033	0.958 ± 0.036	0.994 ± 0.028	0.9353 ± 0.0092	0.901 ± 0.054	0.915 ± 0.084
MIA3 (UniProt Q5JRA6)	0.946 ± 0.041	0.9483 ± 0.0089	0.957 ± 0.029	1 ± 0.036	0.9454 ± 0.0083	0.941 ± 0.031
ARID2 (UniProt Q68CP9)	1.19 ± 0.024	1.22 ± 0.047	1.25 ± 0.034	1.31 ± 0.13	1.33 ± 0.074	1.38 ± 0.074

(listing goes on)

Target	NP40-soluble protein abundance (concentration: 1mM)	NP40-soluble protein abundance (concentration: 2mM)	NP40-soluble protein abundance (concentration: 4mM)	NP40-soluble protein abundance (concentration: 6mM)	NP40-soluble protein abundance (concentration: 8mM)	NP40-soluble protein abundance (concentration: 10mM)
CDCA8 (UniProt Q53HL2)	1.07 ± 0.093	1.04 ± 0.13	1.16 ± 0.18	1.13 ± 0.29	1.17 ± 0.28	1.29 ± 0.33
UniProt Q684P5-2|Q684P5-3|Q684P5	0.962 ± 0.028	0.975 ± 0.014	0.954 ± 0.0091	0.968 ± 0.015	0.939 ± 0.012	0.941 ± 0.012
UniProt Q6P1X6 and related entries	0.947 ± 0.015	1.03 ± 0.037	0.987 ± 0.011	0.886 ± 0.066	0.989 ± 0.024	1 ± 0.043
BOLA3 (UniProt Q53S33)	1.11 ± 0.24	0.93 ± 0.077	1 ± 0.14	1.04 ± 0.12	0.93 ± 0.035	0.841 ± 0.061
UniProt Q5VIR6-4	0.985 ± 0.048	0.994 ± 0.026	0.994 ± 0.016	0.986 ± 0.012	0.962 ± 0.012	0.968 ± 0.023
UniProt Q5T4S7 and related entries	1.02 ± 0.045	0.9713 ± 0.0059	0.949 ± 0.017	0.922 ± 0.093	0.977 ± 0.078	0.961 ± 0.064
UniProt Q659A1	0.956 ± 0.1	1.09 ± 0.088	1.05 ± 0.03	1.11 ± 0.1	1.07 ± 0.017	1.08 ± 0.071
TBCEL (UniProt Q5QJ74)	1.08 ± 0.038	1.2 ± 0.23	1.09 ± 0.049	1.01 ± 0.12	0.984 ± 0.065	1.02 ± 0.099
UniProt Q562F6 and related entries	1.02 ± 0.074	1.04 ± 0.051	1.04 ± 0.061	1.06 ± 0.027	1.03 ± 0.068	1.05 ± 0.062
UniProt Q6NUQ4 and related entries	0.987 ± 0.033	1 ± 0.019	1.006 ± 0.0067	1.07 ± 0.018	1.04 ± 0.016	1.05 ± 0.025
OCIAD2 (UniProt Q56VL3)	0.914 ± 0.054	0.9391 ± 0.0027	0.938 ± 0.03	0.872 ± 0.086	0.91 ± 0.041	0.894 ± 0.063
UniProt Q6P1R4 and related entries	1.04 ± 0.033	1.02 ± 0.016	1.03 ± 0.016	1 ± 0.034	0.98 ± 0.023	0.999 ± 0.034
UniProt Q5T4F4-2|Q5T4F4-7|Q5T4F4-8|Q5T4F4 and related entries	0.946 ± 0.14	0.956 ± 0.13	0.938 ± 0.069	0.923 ± 0.15	0.924 ± 0.18	1.02 ± 0.065
Q5T3Q7 and related entries (UniProt Q9H583)	1.08 ± 0.14	1.13 ± 0.11	1.24 ± 0.14	1.16 ± 0.11	1.3 ± 0.11	1.4 ± 0.1
Q5JTV1 and related entries (UniProt Q9UKD1)	1.01 ± 0.019	1.09 ± 0.061	1.03 ± 0.032	1.01 ± 0.023	1.01 ± 0.031	1.012 ± 0.0019
SAMD9 (UniProt Q5K651)	1.03 ± 0.11	1.02 ± 0.093	1.01 ± 0.093	0.981 ± 0.11	1.05 ± 0.073	1 ± 0.056
CTR9 (UniProt Q6PD62)	0.964 ± 0.058	0.947 ± 0.047	0.892 ± 0.019	0.846 ± 0.043	0.813 ± 0.034	0.708 ± 0.018
AMOT (UniProt Q4VCS5)	0.934 ± 0.047	0.988 ± 0.099	1.03 ± 0.031	1.06 ± 0.099	1.04 ± 0.021	1.09 ± 0.099
UniProt Q5TDH0 and related entries	0.975 ± 0.014	0.967 ± 0.036	0.9594 ± 0.0062	0.958 ± 0.051	0.968 ± 0.044	0.956 ± 0.044
MBLAC2 (UniProt Q68D91)	1.02 ± 0.1	1.03 ± 0.1	1.03 ± 0.1	0.971 ± 0.14	1.01 ± 0.086	1.02 ± 0.068
